Values from PubChem BioAssay AID743454 (Peter MacCallum Cancer Centre, 2014)

- Aim: 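Genes whose loss kills vorinostat-resistant colon cancer cells under vorinostat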 (primary screen)
- Cell system: human HCT116-VR colon cancer cells, selected for vorinostat resistance
- Reagents: siRNA pool against human genes, 40 nM siRNA pool
- Duration: vorinostat for 24 h, read-out about 72 h after transfection
- Treatment: vorinostat at 2.5 µM final
- Measurement: 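Cell viability by CellTiter-Fluor and caspase 3/7 activity by luminescence, each scaled to mock wells per plate, duplicates averaged, then robust z-scored over all plates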
- Reading the numbers: viability robust z-score: higher = more viable cells than screen typical; caspase robust z-score: higher = more caspase 3/7 activity than screen typical
- Rule for the call: 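Hits are knock-downs in viability class RV1/RV2 or caspase class CA1/CA2, excluding ones that killed cells in the no-drug cell-count arm; hits then retested with single siRNAs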
Shown is an unselected part of about 18,000 reagents tested. 450 of them (2.5%) were called active. 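Single biological run; no consistent viability z cut-off exists, so the class columns, not z-scores, define the calls.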 Entries without a mark were called inactive. No sequences are given here.

What did the screen give for TMEM182?
viability hit class: no change; caspase hit class: no change; viability robust z-score: 0.38; caspase robust z-score: -0.94

For CYP46A1, what was measured?
viability hit class: no change; caspase hit class: no change; viability robust z-score: -0.44; caspase robust z-score: 0.57

For SPAG7, how do the results read?
viability hit class: no change; caspase hit class: no change; viability robust z-score: -0.15; caspase robust z-score: -1.05

With AP4E1, how do the results read?
viability hit class: no change; caspase hit class: no change; viability robust z-score: 0.78; caspase robust z-score: -0.76

What did the screen give for NEXN?
viability hit class: no change; caspase hit class: no change; viability robust z-score: 0.76; caspase robust z-score: 0.44

Which result is listed for H2AC19?
viability hit class: no change; caspase hit class: no change; viability robust z-score: 2.1; caspase robust z-score: 0.02

How did the screen score MAPK15?
viability hit class: no change; caspase hit class: no change; viability robust z-score: 0.88; caspase robust z-score: -0.06

Which result is listed for AACS?
viability hit class: no change; caspase hit class: no change; viability robust z-score: -1.98; caspase robust z-score: 0.29

For ZFAND1, what was measured?
viability hit class: no change; caspase hit class: no change; viability robust z-score: 2.21; caspase robust z-score: -0.82

For NDUFB7, how do the results read?
viability hit class: no change; caspase hit class: no change; viability robust z-score: 0.45; caspase robust z-score: 0.64

How did the screen score SPDYC?
viability hit class: no change; caspase hit class: no change; viability robust z-score: 0.98; caspase robust z-score: 0.14

How did the screen score TFDP1?
viability hit class: no change; caspase hit class: no change; viability robust z-score: -0.71; caspase robust z-score: 1.88

Part of the list above, reformatted:
{"gene knocked down": "SPDYC", "viability hit class": "no change", "caspase hit class": "no change", "viability robust z-score": 0.98, "caspase robust z-score": 0.14}
{"gene knocked down": "TFDP1", "viability hit class": "no change", "caspase hit class": "no change", "viability robust z-score": -0.71, "caspase robust z-score": 1.88}
